Reference: patent US8283322B2, “Formulations for nonsurgical exogenous crosslink therapy” (Orthopeutics, LP, priority 2008, dated 2012)
Values joined by “and” are separate entries in the source; they are usually repeats but may differ in a detail not shown here. Identical values can stand only once.

System: calf lumbar spinal discs
Assay: Diffusion study in calf lumbar spinal discs (area of diffusion zone, ImageJ)
Procedure: FIG. 12—Diffusion kinetics of genipin and BSA in calf lumbar spinal discs. 200 μl of 0.33% (w/v) or 1 mg/ml BSA-Texas Red were injected at a depth of 1 cm into the discs of individual calf lumbar motion segments and incubated for 1, 3 or 6 hours at 37° C. Samples were transected and the area of each diffusion zone at each time point and for each reagent was determined from photographs using ImageJ software.
FIG. 13—Effect of surfactants on the diffusion of GP and BSA-TR. 200 μl of 0.33% (w/v) or 1 mg/ml BSA-Texas Red formulated in PBS in the absence of presence of 0.1% (w/v) of either Tween-20 or SDS were injected at a depth of 1 cm into the discs of individual calf lumbar motion segments. Segments were incubated for 1 hr at 37° C. and the samples were then transected and the area of each diffusion zone determined from photographs using ImageJ software.
In order to observe the diffusion kinetics of these markers, GP (0.33% (w/v)) or BSA-TR (1 mg/ml) were dissolved in PBS and 200 μl injected at a depth of 1 cm into the discs of individual calf lumbar motion segments and incubated at 37° C. for 1, 3 or 6 hrs in sealed ZipLoc bags containing a sheet of paper towel moistened with H2O. In initial experiments discs were injected at three sites, the dorsal and left and right lateral regions. In some cases, however, diffusion zones merged and were not possible to quantify and in subsequent experiments injections were limited to the left and right lateral regions. Following the incubations, each segment was transected with a scalpel and frozen overnight at −20° C. (to allow the color of the genipin to develop). The samples were then thawed, photographed and the area of each diffusion zone calculated using ImageJ software.
In order to potentially maximize the diffusion of these reagents, the inventors next sought to determine whether this could be achieved through the addition of detergents. The inventors chose one mild, non-ionic surfactant (Tween-20) and one harsher anionic surfactant (SDS) for this purpose. Both 0.33% (w/v) GP and 1 mg/ml BSA-TR were formulated in either PBS alone or PBS containing 0.1% (w/v) of either SDS or Tween-20. These solutions were injected as described above and incubated at 37° C. for 1 hr. […] In contrast, SDS appeared to enhance the diffusion of GP through intervertebral disc tissue by approximately 30% under these conditions.

Row | Compound | area of diffusion zone, Mean (3 hr at 37° C., in PBS) | area of diffusion zone, Mean (6 hr at 37° C., in PBS) | effect of surfactants (SDS, Tween-20) on mobility through the tissue (0.1% (w/v) surfactant in PBS, 1 hr, 37° C.) | diffusion kinetics (1, 3 or 6 hrs at 37° C. in PBS) | area of diffusion zone, single injection site (6 hr at 37° C., in PBS, listed as BSA)
1 | COC(=O)C1=CO[C@@H](O)[C@@H]2C(CO)=CC[C@H]12 [Genipin, genipin] | 241.3 mm^2 | 330.5 mm^2 | – | – | –
2 | BSA-TR: bovine serum albumin (BSA) conjugated to the fluorophore Texas Red (TR); marker for large molecular weight crosslinker [reference compound] | 37.3 mm^2 | 31.1 mm^2 | Neither surfactant appeared to have any effect | did not appear to diffuse | 23.9 H mm^2 and 32.3 L mm^2 and 37.2 R mm^2
